Results as given in publication PMC4813553.
No constants are given. Whether binding was seen depends on the method and setting. In cells and extracts the contact can be indirect. Binding can be weak; no strength is given.

Protein sequences, listed by entry. Tags and fused reporters are not part of them. Lines headed by an entry give the natural chain unless they say otherwise; changes in a name come on top.
UniProt P46108: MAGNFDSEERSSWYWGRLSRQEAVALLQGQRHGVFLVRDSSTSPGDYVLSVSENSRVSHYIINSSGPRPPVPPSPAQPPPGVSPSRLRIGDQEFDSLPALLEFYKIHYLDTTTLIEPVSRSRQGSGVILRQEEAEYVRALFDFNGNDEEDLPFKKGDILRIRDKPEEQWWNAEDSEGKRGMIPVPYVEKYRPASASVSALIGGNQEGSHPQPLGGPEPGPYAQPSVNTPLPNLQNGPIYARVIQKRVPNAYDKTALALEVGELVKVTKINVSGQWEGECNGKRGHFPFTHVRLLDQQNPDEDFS
UniProt Q15811: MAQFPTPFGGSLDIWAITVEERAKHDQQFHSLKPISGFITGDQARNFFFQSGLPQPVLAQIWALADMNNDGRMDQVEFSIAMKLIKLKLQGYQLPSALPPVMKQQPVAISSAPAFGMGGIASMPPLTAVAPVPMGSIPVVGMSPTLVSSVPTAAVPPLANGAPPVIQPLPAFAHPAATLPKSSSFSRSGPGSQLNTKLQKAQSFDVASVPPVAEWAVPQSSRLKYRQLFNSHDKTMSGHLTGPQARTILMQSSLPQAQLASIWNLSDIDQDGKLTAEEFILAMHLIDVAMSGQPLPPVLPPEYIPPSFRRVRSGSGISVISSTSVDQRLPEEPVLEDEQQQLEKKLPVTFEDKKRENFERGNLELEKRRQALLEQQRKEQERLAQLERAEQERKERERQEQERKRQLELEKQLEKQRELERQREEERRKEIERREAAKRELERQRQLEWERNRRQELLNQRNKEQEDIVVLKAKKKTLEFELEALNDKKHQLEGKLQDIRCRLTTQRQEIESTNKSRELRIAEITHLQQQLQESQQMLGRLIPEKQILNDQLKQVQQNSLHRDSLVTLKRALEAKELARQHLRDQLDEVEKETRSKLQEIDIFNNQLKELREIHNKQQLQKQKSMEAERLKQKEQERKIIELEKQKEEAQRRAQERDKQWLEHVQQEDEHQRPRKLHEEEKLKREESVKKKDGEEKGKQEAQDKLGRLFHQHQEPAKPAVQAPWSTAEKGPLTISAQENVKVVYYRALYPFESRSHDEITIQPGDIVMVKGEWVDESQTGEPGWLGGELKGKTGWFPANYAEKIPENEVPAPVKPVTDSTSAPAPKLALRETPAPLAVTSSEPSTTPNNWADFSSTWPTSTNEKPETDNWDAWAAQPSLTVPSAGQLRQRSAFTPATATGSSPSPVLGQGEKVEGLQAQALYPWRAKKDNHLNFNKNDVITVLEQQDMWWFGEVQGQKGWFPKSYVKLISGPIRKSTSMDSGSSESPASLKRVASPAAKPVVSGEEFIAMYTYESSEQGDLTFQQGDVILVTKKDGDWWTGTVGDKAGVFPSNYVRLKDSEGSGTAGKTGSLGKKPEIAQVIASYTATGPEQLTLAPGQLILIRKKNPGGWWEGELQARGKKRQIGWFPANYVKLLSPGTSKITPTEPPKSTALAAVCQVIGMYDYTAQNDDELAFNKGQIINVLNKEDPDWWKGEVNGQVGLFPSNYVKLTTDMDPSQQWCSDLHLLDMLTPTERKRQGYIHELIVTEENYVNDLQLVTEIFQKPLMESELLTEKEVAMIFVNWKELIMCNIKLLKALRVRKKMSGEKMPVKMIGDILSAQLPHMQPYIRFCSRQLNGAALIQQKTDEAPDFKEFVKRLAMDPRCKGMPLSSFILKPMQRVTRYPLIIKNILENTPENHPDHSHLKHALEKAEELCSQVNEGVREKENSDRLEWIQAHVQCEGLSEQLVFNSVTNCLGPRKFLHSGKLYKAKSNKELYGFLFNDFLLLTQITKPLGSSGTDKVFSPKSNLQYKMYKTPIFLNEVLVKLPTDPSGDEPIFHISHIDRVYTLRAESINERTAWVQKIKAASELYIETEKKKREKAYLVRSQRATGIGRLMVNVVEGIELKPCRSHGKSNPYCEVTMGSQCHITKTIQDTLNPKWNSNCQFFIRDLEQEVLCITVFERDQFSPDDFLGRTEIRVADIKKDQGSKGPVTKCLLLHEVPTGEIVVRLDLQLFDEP

B1: Proline-rich transmembrane protein 2 (PRRT2), endogenous in rat forebrain synaptosomes (protein, UniProt D3ZFB6 1-344)
chain: MAASSSEVSEMKGVEDSSNTHSEGPRHSEEGMGPVQVVAENLDQPEALQSGPDTTAAPVDSGPKAELAPETTETPVETPETVQATDLSVNPGEDSKTCPSPKEACQEPASRPEVNREATAEQGAEQQSAAPPEPTSEQALQLNTQSDPQPTSQPPPKPPLQAEPPTQENPTTEVLTESTGEKQENGAVVPLQAGDGEEGPAPQPHSPPSTKTPPANGAPPRVLQKLVEEDRIGRAHGGHPGSPRGSLSRHPSSQLAGPGVEGGEGTQKPRDYIILAILSCFCPMWPVNIVAFAYAVMSRNSLQQGDVDGAQRLGRVAKLLSIVALVGGVLIIIASCVINLGVYK
B2: Dynamin I, endogenous in rat forebrain synaptosomes (protein, UniProt P21575 1-864)
chain: MGNRGMEDLIPLVNRLQDAFSAIGQNADLDLPQIAVVGGQSAGKSSVLENFVGRDFLPRGSGIVTRRPLVLQLVNSTTEYAEFLHCKGKKFTDFEEVRLEIEAETDRVTGTNKGISPVPINLRVYSPHVLNLTLVDLPGMTKVPVGDQPPDIEFQIRDMLMQFVTKENCLILAVSPANSDLANSDALKIAKEVDPQGQRTIGVITKLDLMDEGTDARDVLENKLLPLRRGYIGVVNRSQKDIDGKKDITAALAAERKFFLSHPSYRHLADRMGTPYLQKVLNQQLTNHIRDTLPGLRNKLQSQLLSIEKEVDEYKNFRPDDPARKTKALLQMVQQFAVDFEKRIEGSGDQIDTYELSGGARINRIFHERFPFELVKMEFDEKELRREISYAIKNIHGIRTGLFTPDLAFEATVKKQVQKLKEPSIKCVDMVVSELTSTIRKCSEKLQQYPRLREEMERIVTTHIREREGRTKEQVMLLIDIELAYMNTNHEDFIGFANAQQRSNQMNKKKTSGNQDEILVIRKGWLTINNIGIMKGGSKEYWFVLTAENLSWYKDDEEKEKKYMLSVDNLKLRDVEKGFMSSKHIFALFNTEQRNVYKDYRQLELACETQEEVDSWKASFLRAGVYPERVGDKEKASETEENGSDSFMHSMDPQLERQVETIRNLVDSYMAIVNKTVRDLMPKTIMHLMINNTKEFIFSELLANLYSCGDQNTLMEESAEQAQRRDEMLRMYHALKEALSIIGDINTTTVSTPMPPPVDDSWLQVQSVPAGRRSPTSSPTPQRRAPAVPPARPGSRGPAPGPPPAGSALGGAPPVPSRPGASPDPFGPPPQVPSRPNRAPPGVPSRSGQASPSRPESPRPPFDL

Columns and labels:
[1] = target: SH3 domain of Crk, GST fusion (UniProt P46108); test: pull-down; GST-SH3 domains coupled to glutathione-Sepharose; columns loaded with a Triton X-100 extract of crude synaptosomal fraction (P2) from rat forebrain; bound proteins eluted with SDS and immunoblotted with anti-PRRT2 or anti-dynamin I; only the target purified
[2] = target: Intersectin 1 SH3-A domain, GST fusion (UniProt Q15811); test: as above

| Binder | binding [1] | binding [2] |
| --- | --- | --- |
| B1 | binds | binds |
| B2 | binds | binds |
